In PubChem BioAssay AID2685 (National Center for Advancing Translational Sciences (NCATS), 2010) one finds cell number change and AC50 data, which are given here for 57 compounds.

Usually AC50 stands for the concentration at which the activity in the assay is half-maximal.

The nature of the test: qHTS Assay for Lipid Storage Modulators in Drosophila S3 Cells.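 For cell number change: cells counted by Cell Tracker Red CMTPX staining in the red channel.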 As to conditions: BODIPY lipid droplet fluorescence, 18-24 h; for cell number change: measured here: cell count max response, cells fed with added oleic acid. Summed up:
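Drosophila S3 cells got compounds at several concentrations plus oleic acid (400 uM solution). Laser-scanning cytometry with 488 nm excitation read lipid droplets at 500-530 nm and cells at 575-640 nm. Percent activity was relative to 20 uM Triacsin C.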
For orientation: In qHTS, concentration-response curves come from the screen itself.

[1] abbreviates: measured here: cell number channel AC50, cells fed with added oleic acid.
Where [2] appears, read: measured here: lipid fluorescence (Fed channel) AC50, cells fed with added oleic acid.

This is one part of the list. These are further read-outs of the screen, such as a control signal, another cell line or another target. No call is given for them. The list favours compounds with an active or inconclusive main result. Words in brackets tell the shape of the fitted curve; partial curves, single points and poor fits give uncertain potencies.

`Cc1ccccc1C(=O)NNC(=O)c1cc(S(=O)(=O)N2CCOCC2)ccc1C`: the cell number change is -47.9%. In addition, under setting [1], the AC50 was 1.16 µM [falling, full curve]. Besides, under setting [2], the AC50 was 1.03 µM [falling, full curve].

On to `Cc1ccc(-c2[nH]ncc2/C=N/n2c(COc3ccccc3)nc3ccccc3c2=O)cc1`, for which the cell number change is -61.6%. Besides, under setting [1], the AC50 is 29.1 µM [falling, single point]. Further, the AC50 under setting [2] is 29.1 µM [falling, single point].

Take `CCCCCOC(=O)C1[C@H]2C(=O)N(c3ccccc3CC)C[C@]23C=C[C@H]1O3` (stereo not given in full): the cell number change is 2.87%.

For the compound `Cc1ccc(C2CC2c2n[nH]c(=S)n2-c2ccc(C)cc2)cc1` (stereo not given), the cell number change was -15.4%. In addition, the AC50 under setting [2] was 0.731 µM [falling, full curve].

Take `O=C(c1cc2c(s1)CCCC2)n1cccn1`: the cell number change stood at 53%. Moreover, the AC50 under setting [1] is 29.1 µM [rising, single point].

With `CC(OC(=O)Cc1c(F)cccc1Cl)C(=O)NCCC1=CCCCC1` (stereo not given), the cell number change is 60.8%. Also, the AC50 under setting [1] is 29.1 µM [rising, single point]. In addition, the AC50 under setting [2] was 25.9 µM [falling, partial curve, poor fit].

In the case of `CSc1nc(S(=O)(=O)c2ccc(C)cc2)c(Cl)s1`, the cell number change was -31.3%.

For `COc1ccc(CCN(C)Cc2nc(-c3cnccn3)no2)cc1OC`, the cell number change was 23.9%. Moreover, the AC50 under setting [2] was 0.651 µM [rising, full curve, poor fit].

As to `Cc1ccc(S(=O)(=O)/C(C#N)=C/c2c(N3CCC(C(N)=O)CC3)nc3ccccn3c2=O)cc1`, the cell number change was 45.9%. For the same compound, the AC50 under setting [1] was 1.84 µM [rising, partial curve].

For the compound `O=C(NCc1ccc2c(c1)OCO2)c1nc(Cn2cc([N+](=O)[O-])cn2)no1`, the cell number change was -5.71%. Also, the AC50 under setting [1] is 0.013 µM [rising, full curve, poor fit].

On to `O=C(O)c1cccc(N2C(=S)N=C(Nc3ccccc3)C23CCCCC3)c1`, for which the cell number change is -47.2%. In addition, the half-maximal activity concentration (AC50) under setting [1] is 20.6 µM [falling, single point].

As to `O=C(Nc1nnc(C23CC4CC(CC(C4)C2)C3)s1)c1ccc(N2C(=O)CCC2=O)cc1`, the cell number change is -17.3%. The AC50 under setting [1] is 6.51 µM [falling, single point].

`C=CCn1c(-c2cccc(S(=O)(=O)N3CCOCC3)c2)n[nH]c1=S`: the cell number change is 16.5%.

Regarding `CCCCNC(=O)CN(C1CCCCC1)S(C)(=O)=O`, the cell number change was -188%. Moreover, the AC50 under setting [1] is 18.4 µM [falling, single point]. The AC50 under setting [2] was 25.9 µM [falling, single point].

Turning to `CC(C)Oc1ccccc1OCCCOc1cccc2cccnc12`, the cell number change was -11.7%. In addition, the AC50 under setting [2] is 2.91 µM [falling, partial curve, poor fit].

Take `Cc1ccc2nc(S(=O)(=O)O)[nH]c2c1`: the cell number change is -25.6%. Further, the AC50 under setting [2] is 29.1 µM [falling, single point].

With `Cc1ccc2c(c1)N(C(=O)CCC(=O)Nc1ccccc1Cl)CC(C)O2` (stereo not given), the cell number change worked out at 7.2%.

For `CC(NC(=O)CN1CCN(S(=O)(=O)c2ccc(Br)cc2)CC1)c1ccccc1` (stereo not given), the cell number change came to 115%. Besides, under setting [1], the AC50 was 20.6 µM [rising, single point].

`O=C(Nc1cc(C(F)(F)F)ccc1Cl)C1CCN(c2nnc(-n3cccc3)s2)CC1`: the cell number change was -18.4%. Further, the AC50 under setting [2] was 29.1 µM [falling, single point].

Regarding `CCOC(=O)C1CCN(c2nc(C)nc3c2oc2ccccc23)CC1`, the cell number change is -31.4%. For the same compound, the AC50 under setting [1] was 29.1 µM [falling, partial curve].

Regarding `Cc1cc(C)nc(SCc2cn3c(C)cc(C)nc3n2)n1`, the cell number change turned out to be 18.1%. Moreover, under setting [2], the AC50 was 4.61 µM [rising, full curve].

As for `CC/C(=N\NC(=O)CSCc1ccccc1Br)c1ccc2c(c1)OCCO2`, the AC50 under setting [1] is 1.3 µM [rising, full curve, poor fit].

For `COc1ccc(OCCCC(=O)Oc2ccc(OC)cc2)cc1`, the cell number change was -70.5%. For the same compound, the AC50 under setting [1] is 3.26 µM [falling, partial curve].

`CCOC(=O)N1CCC(Nc2c(NCCCOC)c(=O)c2=O)CC1`: the cell number change is -43.6%. Moreover, under setting [1], the half-maximal activity concentration (AC50) was 4.11 µM [falling, full curve]. Besides, under setting [2], the AC50 is 5.17 µM [falling, full curve].

As for `CCc1nccn1S(=O)(=O)c1ccc2ccccc2c1`, the cell number change is -0.424%. Under setting [1], the AC50 is 5.17 µM [falling, single point]. Besides, under setting [2], the AC50 was 16.4 µM [falling, single point].

On to `O=C(CC(=O)Nc1ccc(F)cc1F)Nc1ccc(F)cc1F`, for which, under setting [2], the AC50 is 29.1 µM [rising, single point].

For the compound `CCN(c1ccc(OC)cc1)S(=O)(=O)c1ccc(-c2ccc(=O)[nH]n2)o1`, the cell number change is -35.7%. Moreover, under setting [1], the AC50 was 2.31 µM [falling, partial curve, poor fit]. Under setting [2], the half-maximal activity concentration (AC50) was 6.51 µM [falling, partial curve].

With `O=c1cc(-c2ccccc2F)oc2ccccc12`, the cell number change is -25.8%. The half-maximal activity concentration (AC50) under setting [2] was 14.6 µM [falling, single point].

Consider `Cc1ccc(S(=O)(=O)CCc2nnc(NC(=O)c3cccs3)s2)cc1`, for which the cell number change was found to be 136%. Moreover, the AC50 under setting [1] was 18.4 µM [rising, single point]. Besides, the AC50 under setting [2] is 18.4 µM [rising, partial curve].

As for `O=C(NC(=S)Nc1ccccn1)c1ccccc1`, the cell number change was found to be 10.3%.

As for `COc1cccc(/C=C/c2ccc3cccc(O)c3n2)c1`, the cell number change amounted to 64.5%. Also, under setting [1], the AC50 was 16.4 µM [rising, single point]. In addition, the AC50 under setting [2] is 29.1 µM [rising, partial curve, poor fit].

On to `CCN(CC)C(=O)c1ccc(Oc2ccc([N+](=O)[O-])cc2Cl)cc1`, for which the cell number change stood at 0.865%.

Turning to `O=C(O)COc1c(-c2ccco2)oc2ccccc2c1=O`, the cell number change is -29.4%. For the same compound, the AC50 under setting [2] was 25.9 µM [falling, single point].

`N#Cc1c(SCC(=O)Nc2cccc(F)c2)sc2c(O)cc(=O)[nH]c12`: the cell number change was -2.56%. In addition, the AC50 under setting [2] was 25.9 µM [rising, single point].

As for `O=S(=O)(Nc1cccc(-c2nc3cccnc3s2)c1)c1ccc2c(c1)OCCO2`, under setting [2], the AC50 was 1.16 µM [rising, partial curve].

On to `Cc1cccc2c3nc4ccccc4nc3n(CCCN3C(=O)c4ccccc4C3=O)c12`, for which the cell number change worked out at 13.5%. In addition, the AC50 under setting [2] was 23.1 µM [rising, single point].

`O=C(c1cccs1)N1CCCC(c2nc3c(nnn3Cc3c(Cl)cccc3Cl)c(=O)[nH]2)C1` (stereo not given): the cell number change is -15.4%.

`CCN(CC)C(=O)CSc1ncnc2c1cnn2Cc1ccccc1`: the cell number change was -8.6%. Besides, the AC50 under setting [2] was 9.2 µM [rising, partial curve].

Take `C/C(CC(=O)N1CCN(C=O)CC1)=N\NC(=O)c1ccc([N+](=O)[O-])cc1`: the cell number change was -25.6%. For the same compound, under setting [2], the AC50 is 16.4 µM [falling, partial curve, poor fit].

Regarding `O=C(CN1CCN(Cc2ccccc2)CC1)NC(=O)NC1CCCCC1`, the cell number change was -15.5%. For the same compound, the AC50 under setting [2] is 5.8 µM [falling, full curve].

On to `S=C(NCCNCc1ccccc1)NC1CCCCC1`, for which the cell number change was -12.8%. Besides, the AC50 under setting [2] was 20.6 µM [rising, single point].

On to `COc1ccccc1/C=C/C(=O)NCC(=O)N/N=C/c1cc(Br)ccc1OC`, for which, under setting [1], the AC50 was 2.59 µM [rising, partial curve].

Take `CC(C)(CO)NS(=O)(=O)c1ccc2c(c1)oc(=O)c1cc(S(=O)(=O)NC(C)(C)CO)ccc12`: the cell number change was -78.3%. Moreover, the AC50 under setting [1] was 20.6 µM [falling, partial curve]. Also, under setting [2], the AC50 was 0.116 µM [falling, full curve, poor fit].

In the case of `CCN(CC)S(=O)(=O)c1ccc(S(=O)(=O)N2CCC(N3CCCCC3)CC2)cc1`, the cell number change is -4.27%. The AC50 under setting [2] is 0.82 µM [falling, partial curve, poor fit].

Turning to `COC(=O)c1ccc(/C=N/NC(=O)CC(=O)NC2CCCCC2)cc1`, the cell number change is 31.8%. The AC50 under setting [1] was 29.1 µM [rising, single point].

As for `Cc1cc(O)c(C(C[N+](=O)[O-])c2ccc(Cl)cc2Cl)c(=O)o1` (stereo not given), the AC50 under setting [1] is 0.13 µM [falling, full curve, poor fit].

Take `CCC1=Nc2cc(C(=O)NCc3ccco3)ccc2Sc2ccc(C)cc21`: the cell number change was -19.2%. Moreover, the AC50 under setting [2] was 4.11 µM [falling, full curve, poor fit].

For `CCn1cc(CNC(=O)c2c(-c3c(Cl)cccc3Cl)noc2C)c(C)n1`, the cell number change was -0.157%. The AC50 under setting [2] is 7.31 µM [falling, partial curve, poor fit].

On to `CCOC(=O)C1CCCN(C(=O)C(=O)Nc2ccc3nc4n(c(=O)c3c2)CCCCC4)C1` (stereo not given), for which the cell number change turned out to be 5.19%. For the same compound, the AC50 under setting [2] is 29.1 µM [falling, single point].

As to `CNC(=O)NNC(=O)c1csc(Cc2c(Cl)sc3ccc(Cl)cc23)n1`, the cell number change is 27.9%. Besides, the AC50 under setting [1] is 0.82 µM [rising, full curve, poor fit]. Also, the AC50 under setting [2] is 0.0326 µM [rising, full curve, poor fit].

As to `Cc1cc(C(=O)N2CCN(c3ccccn3)CC2)c(C)o1`, the cell number change is -3.51%. Besides, the AC50 under setting [1] was 0.731 µM [falling, single point]. Under setting [2], the AC50 is 6.51 µM [falling, single point].

With `CC(C)c1ccc(/C=c2\sc3nc(-c4ccncc4)nn3c2=O)cc1`, the cell number change is 19.8%. Under setting [1], the concentration at half-maximal activity (AC50) was 1.3 µM [falling, full curve]. In addition, the AC50 under setting [2] was 0.164 µM [falling, full curve, poor fit].

In the case of `Cc1ccc(-n2c(C)c3c(C)nnc(C)c3c2C)cc1C`, the cell number change is -56.7%. Moreover, under setting [1], the AC50 is 16.4 µM [falling, partial curve].

As for `CC(C)c1ccccc1-n1c(SCC(=O)N2CCc3ccccc3C2)nc2ccccc2c1=O`, the cell number change is -47.2%. Moreover, the AC50 under setting [1] is 14.6 µM [falling, single point].

As to `C[C@@]12CCC3[C@@](CCC4[C@@]3(C)CCC[C@@]4(C)C(=O)O)(CC1=O)C2` (stereo not given in full), the cell number change is -2.33%. Besides, the AC50 under setting [1] was 0.58 µM [falling, partial curve]. The AC50 under setting [2] is 0.517 µM [falling, partial curve].

Take `CC1(c2cccc(Br)c2)NC(=O)N(CC(=O)NCC2CCCO2)C1=O` (stereo not given): the cell number change is 21.5%. Further, under setting [1], the AC50 is 0.00461 µM [falling, full curve, poor fit].

In the case of `Cc1cccc(NC(=O)C(C)SCc2nc3sc4c(c3c(=O)[nH]2)CCCC4)n1` (stereo not given), the cell number change turned out to be 18.5%.
